Test results from the supplement of paper PMC12823440, “Inhibitors supercharge kinase turnover through native proteolytic circuits” (Nature, 2025).
Counter-ions that a name gives are not always drawn. The list shows a part of the results. The calls rarely recur for the same compound in another form.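 Kinases, fused to nanoluciferase, were expressed in K562 cells; luminescence was measured every 4 h from 2 to 18 h as percent of control (DMSO = 100%, positive control = 0%). A time point is decreased if signal falls significantly (2 sigma). Hits were called by the authors by a rule that is not shown; the count of time points alone does not decide it.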

Amino acid sequences for entries named in this document (tags omitted). A change or cut given only in a name is not applied to a line headed by its entry.
UniProt P10398: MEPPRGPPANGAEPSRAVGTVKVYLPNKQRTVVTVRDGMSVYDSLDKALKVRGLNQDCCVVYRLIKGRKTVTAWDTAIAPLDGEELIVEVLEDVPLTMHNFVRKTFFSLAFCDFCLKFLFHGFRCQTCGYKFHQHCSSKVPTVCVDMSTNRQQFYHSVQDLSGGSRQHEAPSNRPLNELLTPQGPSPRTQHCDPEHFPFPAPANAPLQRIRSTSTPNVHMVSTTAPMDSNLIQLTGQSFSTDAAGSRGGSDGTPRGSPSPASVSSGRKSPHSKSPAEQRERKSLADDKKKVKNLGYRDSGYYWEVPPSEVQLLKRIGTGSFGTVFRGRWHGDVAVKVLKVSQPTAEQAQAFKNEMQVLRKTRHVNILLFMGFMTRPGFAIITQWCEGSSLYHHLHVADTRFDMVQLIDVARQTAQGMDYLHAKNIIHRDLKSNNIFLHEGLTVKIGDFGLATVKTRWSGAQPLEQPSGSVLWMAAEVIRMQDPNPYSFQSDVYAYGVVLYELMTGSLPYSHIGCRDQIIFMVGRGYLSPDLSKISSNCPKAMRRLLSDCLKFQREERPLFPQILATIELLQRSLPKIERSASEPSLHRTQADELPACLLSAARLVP
UniProt O14965: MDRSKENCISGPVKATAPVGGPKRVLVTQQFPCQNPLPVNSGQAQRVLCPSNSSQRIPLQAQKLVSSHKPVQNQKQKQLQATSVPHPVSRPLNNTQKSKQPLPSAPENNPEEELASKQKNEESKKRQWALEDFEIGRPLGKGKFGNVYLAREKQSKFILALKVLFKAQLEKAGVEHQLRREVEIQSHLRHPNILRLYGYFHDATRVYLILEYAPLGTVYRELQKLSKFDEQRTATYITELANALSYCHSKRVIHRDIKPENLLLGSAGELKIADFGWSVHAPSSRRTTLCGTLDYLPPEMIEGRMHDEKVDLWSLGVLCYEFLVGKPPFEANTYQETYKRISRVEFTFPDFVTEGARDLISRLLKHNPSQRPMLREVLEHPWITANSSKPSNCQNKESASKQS
UniProt Q96GD4, whole entry: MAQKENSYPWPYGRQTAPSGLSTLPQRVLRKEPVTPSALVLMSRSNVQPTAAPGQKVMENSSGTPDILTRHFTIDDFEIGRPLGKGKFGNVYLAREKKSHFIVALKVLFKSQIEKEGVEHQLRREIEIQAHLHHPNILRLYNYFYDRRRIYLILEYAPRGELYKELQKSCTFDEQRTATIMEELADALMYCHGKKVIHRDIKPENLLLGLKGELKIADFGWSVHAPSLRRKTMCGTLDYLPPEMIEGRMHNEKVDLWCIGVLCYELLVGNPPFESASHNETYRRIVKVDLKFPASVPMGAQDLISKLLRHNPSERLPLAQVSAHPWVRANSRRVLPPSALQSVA
UniProt Q9UQB9: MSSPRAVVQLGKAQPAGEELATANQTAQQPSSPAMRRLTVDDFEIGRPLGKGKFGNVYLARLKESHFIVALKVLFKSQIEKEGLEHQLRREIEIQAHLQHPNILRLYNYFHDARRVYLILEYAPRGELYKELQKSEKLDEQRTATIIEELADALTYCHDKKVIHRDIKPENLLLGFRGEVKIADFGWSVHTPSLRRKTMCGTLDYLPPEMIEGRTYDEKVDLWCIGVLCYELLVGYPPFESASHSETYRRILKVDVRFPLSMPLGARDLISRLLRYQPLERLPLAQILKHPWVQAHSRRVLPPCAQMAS
UniProt P51813: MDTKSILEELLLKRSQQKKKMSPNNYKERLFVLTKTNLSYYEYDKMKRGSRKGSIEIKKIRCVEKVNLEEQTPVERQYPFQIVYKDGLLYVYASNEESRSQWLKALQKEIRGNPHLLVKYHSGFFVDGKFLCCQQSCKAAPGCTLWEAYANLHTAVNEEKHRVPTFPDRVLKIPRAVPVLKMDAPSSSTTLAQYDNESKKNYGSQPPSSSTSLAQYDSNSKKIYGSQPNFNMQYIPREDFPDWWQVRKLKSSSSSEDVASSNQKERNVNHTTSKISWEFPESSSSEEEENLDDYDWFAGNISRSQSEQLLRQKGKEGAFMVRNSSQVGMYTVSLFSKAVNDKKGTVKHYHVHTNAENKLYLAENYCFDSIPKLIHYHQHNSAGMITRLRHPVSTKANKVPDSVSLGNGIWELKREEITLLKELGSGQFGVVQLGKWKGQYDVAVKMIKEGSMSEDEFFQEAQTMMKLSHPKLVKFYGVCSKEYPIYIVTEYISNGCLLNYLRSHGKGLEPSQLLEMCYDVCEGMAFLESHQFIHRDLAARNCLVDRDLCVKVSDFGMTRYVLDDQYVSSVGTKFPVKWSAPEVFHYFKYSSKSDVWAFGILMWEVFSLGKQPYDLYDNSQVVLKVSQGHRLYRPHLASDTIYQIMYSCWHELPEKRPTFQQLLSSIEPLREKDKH
UniProt P15056, whole entry, looked up: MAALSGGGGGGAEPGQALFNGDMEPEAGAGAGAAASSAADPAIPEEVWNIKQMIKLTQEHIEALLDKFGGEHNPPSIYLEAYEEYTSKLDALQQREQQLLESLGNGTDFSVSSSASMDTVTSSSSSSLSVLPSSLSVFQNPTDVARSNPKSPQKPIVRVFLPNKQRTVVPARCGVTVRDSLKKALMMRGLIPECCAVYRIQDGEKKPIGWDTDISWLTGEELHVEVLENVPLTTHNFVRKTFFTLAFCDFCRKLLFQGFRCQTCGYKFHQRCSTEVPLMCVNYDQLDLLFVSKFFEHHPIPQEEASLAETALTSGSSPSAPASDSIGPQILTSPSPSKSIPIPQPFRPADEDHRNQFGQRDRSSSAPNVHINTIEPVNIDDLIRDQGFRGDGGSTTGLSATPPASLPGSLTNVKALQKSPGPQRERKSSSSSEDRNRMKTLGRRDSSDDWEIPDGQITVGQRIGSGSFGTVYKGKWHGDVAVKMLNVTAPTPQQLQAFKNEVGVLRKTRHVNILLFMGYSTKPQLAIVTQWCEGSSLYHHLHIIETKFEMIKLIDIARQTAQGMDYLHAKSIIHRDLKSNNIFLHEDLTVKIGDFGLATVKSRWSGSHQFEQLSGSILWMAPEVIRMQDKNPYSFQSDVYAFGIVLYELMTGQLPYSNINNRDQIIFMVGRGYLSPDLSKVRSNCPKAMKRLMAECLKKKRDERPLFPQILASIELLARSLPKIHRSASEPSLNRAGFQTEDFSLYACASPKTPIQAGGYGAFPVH
UniProt Q9UQM7, whole entry: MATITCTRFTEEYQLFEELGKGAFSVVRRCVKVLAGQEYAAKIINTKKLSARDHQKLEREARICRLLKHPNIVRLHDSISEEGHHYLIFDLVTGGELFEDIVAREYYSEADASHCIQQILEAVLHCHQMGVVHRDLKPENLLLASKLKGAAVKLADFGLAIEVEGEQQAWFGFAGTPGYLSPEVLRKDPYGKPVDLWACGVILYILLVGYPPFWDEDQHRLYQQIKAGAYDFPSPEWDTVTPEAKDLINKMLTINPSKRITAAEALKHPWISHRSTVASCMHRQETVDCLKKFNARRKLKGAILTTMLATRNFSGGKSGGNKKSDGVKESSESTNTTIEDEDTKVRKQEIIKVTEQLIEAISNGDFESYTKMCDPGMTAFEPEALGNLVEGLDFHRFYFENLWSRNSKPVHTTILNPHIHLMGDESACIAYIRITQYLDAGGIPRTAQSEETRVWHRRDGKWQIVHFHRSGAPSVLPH
UniProt Q13555: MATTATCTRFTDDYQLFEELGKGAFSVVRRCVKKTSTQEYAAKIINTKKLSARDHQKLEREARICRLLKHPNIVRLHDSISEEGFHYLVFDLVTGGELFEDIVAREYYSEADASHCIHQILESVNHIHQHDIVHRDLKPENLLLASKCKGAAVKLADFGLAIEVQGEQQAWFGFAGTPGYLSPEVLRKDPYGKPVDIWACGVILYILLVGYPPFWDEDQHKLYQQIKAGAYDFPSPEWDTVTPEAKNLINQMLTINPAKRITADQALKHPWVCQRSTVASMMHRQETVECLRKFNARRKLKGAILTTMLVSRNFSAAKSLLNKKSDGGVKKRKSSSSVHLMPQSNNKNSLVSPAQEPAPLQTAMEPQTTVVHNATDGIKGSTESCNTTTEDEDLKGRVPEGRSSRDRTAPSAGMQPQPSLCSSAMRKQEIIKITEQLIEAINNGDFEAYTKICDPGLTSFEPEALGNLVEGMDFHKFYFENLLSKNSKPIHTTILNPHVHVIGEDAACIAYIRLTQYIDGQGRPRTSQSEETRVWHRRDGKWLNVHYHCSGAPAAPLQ
UniProt Q15131: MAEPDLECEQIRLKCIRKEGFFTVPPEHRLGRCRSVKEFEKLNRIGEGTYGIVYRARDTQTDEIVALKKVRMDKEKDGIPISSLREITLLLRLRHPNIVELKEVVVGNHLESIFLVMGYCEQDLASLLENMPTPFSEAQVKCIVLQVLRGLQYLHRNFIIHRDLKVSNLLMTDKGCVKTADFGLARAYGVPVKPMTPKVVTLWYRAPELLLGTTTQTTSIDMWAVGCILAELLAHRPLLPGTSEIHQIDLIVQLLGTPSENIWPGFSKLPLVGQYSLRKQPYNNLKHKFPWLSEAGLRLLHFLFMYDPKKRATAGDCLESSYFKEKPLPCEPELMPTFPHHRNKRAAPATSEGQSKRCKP
UniProt Q00526: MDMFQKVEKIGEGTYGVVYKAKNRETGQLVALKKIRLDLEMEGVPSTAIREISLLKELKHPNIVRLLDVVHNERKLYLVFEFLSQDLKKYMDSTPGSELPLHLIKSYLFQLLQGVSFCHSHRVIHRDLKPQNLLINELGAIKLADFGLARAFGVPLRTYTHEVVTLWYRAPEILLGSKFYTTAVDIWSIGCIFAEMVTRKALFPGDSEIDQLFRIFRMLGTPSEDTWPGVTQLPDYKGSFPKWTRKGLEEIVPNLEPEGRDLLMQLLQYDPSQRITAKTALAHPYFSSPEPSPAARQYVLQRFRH
UniProt Q00535, whole entry, looked up: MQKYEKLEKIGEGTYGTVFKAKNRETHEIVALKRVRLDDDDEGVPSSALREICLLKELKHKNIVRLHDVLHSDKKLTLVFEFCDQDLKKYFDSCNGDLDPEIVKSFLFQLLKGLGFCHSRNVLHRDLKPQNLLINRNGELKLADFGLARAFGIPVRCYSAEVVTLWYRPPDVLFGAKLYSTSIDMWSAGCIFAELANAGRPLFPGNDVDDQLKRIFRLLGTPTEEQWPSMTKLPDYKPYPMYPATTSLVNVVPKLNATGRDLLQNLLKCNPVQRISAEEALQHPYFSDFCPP
UniProt Q00534, whole entry: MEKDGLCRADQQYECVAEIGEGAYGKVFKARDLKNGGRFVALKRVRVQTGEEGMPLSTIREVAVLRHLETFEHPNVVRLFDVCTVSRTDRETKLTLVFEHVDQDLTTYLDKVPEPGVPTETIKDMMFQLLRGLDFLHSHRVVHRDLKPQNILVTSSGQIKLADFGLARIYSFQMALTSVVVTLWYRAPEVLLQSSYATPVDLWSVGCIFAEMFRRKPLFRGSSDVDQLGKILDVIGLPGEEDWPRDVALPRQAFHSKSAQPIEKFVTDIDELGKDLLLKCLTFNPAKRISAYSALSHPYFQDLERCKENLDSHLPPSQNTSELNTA
UniProt O96017, whole entry: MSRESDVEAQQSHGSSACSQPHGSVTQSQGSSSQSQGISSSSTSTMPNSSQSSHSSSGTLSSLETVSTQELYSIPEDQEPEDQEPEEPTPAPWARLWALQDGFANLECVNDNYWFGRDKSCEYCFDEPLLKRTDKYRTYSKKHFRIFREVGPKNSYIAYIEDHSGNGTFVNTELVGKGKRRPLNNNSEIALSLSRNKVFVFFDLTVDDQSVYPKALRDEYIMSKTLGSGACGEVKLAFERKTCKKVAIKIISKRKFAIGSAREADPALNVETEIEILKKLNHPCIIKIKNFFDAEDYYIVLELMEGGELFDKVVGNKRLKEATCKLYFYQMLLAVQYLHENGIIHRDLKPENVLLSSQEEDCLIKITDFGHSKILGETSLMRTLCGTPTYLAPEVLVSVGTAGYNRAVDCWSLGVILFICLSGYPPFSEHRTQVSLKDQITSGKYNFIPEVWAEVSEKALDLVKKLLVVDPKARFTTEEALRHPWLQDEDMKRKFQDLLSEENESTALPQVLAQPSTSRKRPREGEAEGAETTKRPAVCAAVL
UniProt P41240: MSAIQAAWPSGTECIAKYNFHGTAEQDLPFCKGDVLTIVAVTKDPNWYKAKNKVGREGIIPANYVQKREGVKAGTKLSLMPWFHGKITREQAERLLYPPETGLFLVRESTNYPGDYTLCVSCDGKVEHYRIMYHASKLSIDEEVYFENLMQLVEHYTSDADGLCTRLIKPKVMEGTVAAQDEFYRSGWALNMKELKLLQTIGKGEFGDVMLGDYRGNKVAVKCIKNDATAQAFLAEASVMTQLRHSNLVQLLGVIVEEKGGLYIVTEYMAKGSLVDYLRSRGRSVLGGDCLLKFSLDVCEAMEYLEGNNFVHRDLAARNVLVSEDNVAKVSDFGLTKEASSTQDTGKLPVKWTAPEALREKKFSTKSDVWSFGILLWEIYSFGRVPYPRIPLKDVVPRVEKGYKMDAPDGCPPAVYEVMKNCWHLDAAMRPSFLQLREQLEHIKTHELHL

Legend:
Experiment in all cases: number of time points (of 5) at which kinase-Nluc abundance scored as decreased, DMSO-normalised (count); higher = more persistent destabilization
Settings in all cases: K562; 2-18 h
ALK = ALK (UniProt Q9UM73)
ARAF = ARAF (UniProt P10398)
AURKA = AURKA (UniProt O14965)
AURKB = AURKB (UniProt Q96GD4)
AURKC = AURKC (UniProt Q9UQB9)
BLK = BLK (UniProt P51451)
BMX = BMX (UniProt P51813)
BRAF = BRAF (UniProt P15056)
BRAF_V600E = test system: BRAF_V600E
BTK = BTK (UniProt Q06187)
CAMK2A = CAMK2A (UniProt Q9UQM7)
CAMK2G = CAMK2G (UniProt Q13555)
CDK10 = CDK10 (UniProt Q15131)
CDK2 = CDK2 (UniProt P24941)
CDK3 = CDK3 (UniProt Q00526)
CDK5 = CDK5 (UniProt Q00535)
CDK6 = CDK6 (UniProt Q00534)
CHEK2 = CHEK2 (UniProt O96017)
CSF1R = CSF1R (UniProt P07333)
CSK = CSK (UniProt P41240)

Measured: number of time points

Cn1c(=O)c(F)c(Nc2ccc(I)cc2F)c2c(=O)n(C[C@@H](O)CO)cnc21 (10 µM)
0: ALK | ARAF | AURKA | AURKB | AURKC | BLK | BMX | BRAF | BTK | CAMK2A | CDK10 | CDK2 | CDK3 | CDK5 | CDK6 | CHEK2 | CSF1R | CSK
2: BRAF_V600E
1: CAMK2G

COCCO[C@@H]1[C@H](O)[C@@H](CO)O[C@H]1n1cnc2c(=O)[nH]c(N)nc21 [2′-O-(2-Methoxyethyl)guanosine] (10 µM)
0: ALK | ARAF | AURKA | AURKB | AURKC | BLK | BMX | BRAF | BRAF_V600E | BTK | CAMK2A | CAMK2G | CDK10 | CDK2 | CDK3 | CDK5 | CDK6 | CHEK2 | CSF1R | CSK

CC(=O)c1c(C)c2cnc(Nc3ccc(N4CCN(CCCCNC(=O)COc5cccc6c5C(=O)N(C5CCC(=O)NC5=O)C6=O)CC4)cn3)nc2n(C2CCCC2)c1=O (stereo not given) (10 µM)
0: ALK | ARAF | AURKA | AURKB | AURKC | BLK | BMX | BRAF | BRAF_V600E | BTK | CAMK2A | CAMK2G | CDK10 | CDK2 | CDK3 | CDK5 | CDK6 | CHEK2 | CSF1R | CSK

O=C(O)CCc1ccc(O)c(O)c1 [Dihydrocaffeic acid] (10 µM)
0: ALK | ARAF | AURKA | AURKB | AURKC | BLK | BMX | BRAF | BRAF_V600E | BTK | CAMK2A | CAMK2G | CDK10 | CDK2 | CDK3 | CDK5 | CDK6 | CHEK2 | CSF1R | CSK

COc1cc2ncn(-c3cc(OCc4ccccc4S(C)(=O)=O)c(C#N)s3)c2cc1OC (10 µM)
0: ALK | ARAF | AURKA | AURKB | AURKC | BLK | BMX | BRAF | BRAF_V600E | BTK | CAMK2A | CAMK2G | CDK10 | CDK2 | CDK3 | CDK5 | CDK6 | CHEK2 | CSF1R | CSK

Fc1ccc(-c2nc(-c3c(F)cccc3F)[nH]c2-c2ccncc2)cc1 (10 µM)
0: ALK | ARAF | AURKA | AURKB | AURKC | BLK | BMX | BRAF | BRAF_V600E | BTK | CAMK2A | CAMK2G | CDK10 | CDK2 | CDK3 | CDK5 | CDK6 | CHEK2 | CSF1R | CSK

CN1C(=O)C(Cc2c[nH]c3ccccc23)NC1=S (stereo not given) [Necrostatin-1] (10 µM)
0: ALK | ARAF | AURKA | AURKB | AURKC | BLK | BMX | BRAF | BRAF_V600E | BTK | CAMK2A | CAMK2G | CDK10 | CDK2 | CDK3 | CDK5 | CDK6 | CHEK2 | CSF1R | CSK

O=C1NC(=O)C(=Cc2ccc(-c3ccc(F)cc3)o2)S1 (stereo in doubt) (10 µM)
0: ALK | ARAF | AURKA | AURKB | AURKC | BLK | BMX | BRAF | BRAF_V600E | BTK | CAMK2A | CAMK2G | CDK10 | CDK2 | CDK3 | CDK5 | CDK6 | CHEK2 | CSF1R | CSK

C[C@]1(O)CCC[C@@H]1n1c(=O)c(C(F)F)cc2cnc(NC3CCN(S(C)(=O)=O)CC3)nc21 (10 µM)
0: ALK | ARAF | AURKA | AURKB | AURKC | BLK | BMX | BRAF | BRAF_V600E | BTK | CAMK2A | CAMK2G | CDK10 | CDK2 | CDK3 | CDK5 | CDK6 | CHEK2 | CSF1R | CSK

O=C1Nc2nc(-c3c(O)cccc3OCC3CC3)cc([C@@H]3CCCNC3)c2CO1 [Bay 65-1942 (hydrochloride)] (10 µM)
4: AURKA | BRAF_V600E
0: ALK | ARAF | AURKB | AURKC | BLK | BMX | BRAF | BTK | CAMK2A | CAMK2G | CDK10 | CDK2 | CDK3 | CDK5 | CDK6 | CHEK2 | CSF1R | CSK

O=c1cc(O)cc(/C=C/c2ccc(O)c(O)c2)o1 [Hispidin] (10 µM)
0: ALK | ARAF | AURKA | AURKB | AURKC | BLK | BMX | BRAF | BRAF_V600E | BTK | CAMK2A | CAMK2G | CDK10 | CDK2 | CDK3 | CDK5 | CDK6 | CHEK2 | CSF1R | CSK

O=C1c2ccc(Nc3ccc(F)cc3F)cc2CCc2ccc(OC[C@H](O)CO)cc21 [Skepinone-L] (2.5 µM)
0: ALK | ARAF | AURKA | AURKB | AURKC | BLK | BMX | BRAF | BRAF_V600E | BTK | CAMK2A | CAMK2G | CDK10 | CDK2 | CDK3 | CDK5 | CDK6 | CHEK2 | CSF1R | CSK

C[C@@H]1O[C@@H](O[C@H]2[C@H](Oc3cc(O)c4c(=O)cc(-c5ccc(O)cc5)oc4c3)O[C@H](CO)[C@@H](O)[C@@H]2O)[C@H](O)[C@H](O)[C@H]1O [Rhoifolin] (10 µM)
0: ALK | ARAF | AURKA | AURKB | AURKC | BLK | BMX | BRAF | BRAF_V600E | BTK | CAMK2A | CAMK2G | CDK10 | CDK2 | CDK3 | CDK5 | CDK6 | CHEK2 | CSF1R | CSK

COc1ccc(C2CC(c3ccccc3)=NN2c2ccc(S(N)(=O)=O)cc2)cc1 (stereo not given) (10 µM)
0: ALK | ARAF | AURKA | AURKB | AURKC | BLK | BMX | BRAF | BRAF_V600E | BTK | CAMK2A | CAMK2G | CDK10 | CDK2 | CDK3 | CDK5 | CDK6 | CHEK2 | CSF1R | CSK

4 structures out of the list, ordered by count of non-hydrogen atoms, high to low:
COc1cc2ncn(-c3cc(OCc4ccccc4S(C)(=O)=O)c(C#N)s3)c2cc1OC (10 µM)
0: ALK | ARAF | AURKA | AURKB | AURKC | BLK | BMX | BRAF | BRAF_V600E | BTK | CAMK2A | CAMK2G | CDK10 | CDK2 | CDK3 | CDK5 | CDK6 | CHEK2 | CSF1R | CSK

O=C1Nc2nc(-c3c(O)cccc3OCC3CC3)cc([C@@H]3CCCNC3)c2CO1 [Bay 65-1942 (hydrochloride)] (10 µM)
4: AURKA | BRAF_V600E
0: ALK | ARAF | AURKB | AURKC | BLK | BMX | BRAF | BTK | CAMK2A | CAMK2G | CDK10 | CDK2 | CDK3 | CDK5 | CDK6 | CHEK2 | CSF1R | CSK

Cn1c(=O)c(F)c(Nc2ccc(I)cc2F)c2c(=O)n(C[C@@H](O)CO)cnc21 (10 µM)
0: ALK | ARAF | AURKA | AURKB | AURKC | BLK | BMX | BRAF | BTK | CAMK2A | CDK10 | CDK2 | CDK3 | CDK5 | CDK6 | CHEK2 | CSF1R | CSK
2: BRAF_V600E
1: CAMK2G

Fc1ccc(-c2nc(-c3c(F)cccc3F)[nH]c2-c2ccncc2)cc1 (10 µM)
0: ALK | ARAF | AURKA | AURKB | AURKC | BLK | BMX | BRAF | BRAF_V600E | BTK | CAMK2A | CAMK2G | CDK10 | CDK2 | CDK3 | CDK5 | CDK6 | CHEK2 | CSF1R | CSK

Further results

CC(C)(C)c1ccc(S(=O)(=O)Nc2ccc(-n3ccnc3)cc2)cc1 (10 µM)
0: ALK | ARAF | AURKA | AURKB | AURKC | BLK | BMX | BRAF | BRAF_V600E | BTK | CAMK2A | CAMK2G | CDK10 | CDK2 | CDK3 | CDK5 | CDK6 | CHEK2 | CSF1R | CSK

CC(=NNC(=O)c1ccc(C)c(Br)c1)c1ccc(O)cc1O [mTOR inhibitor-1] (2.5 µM)
1: BMX | BRAF_V600E
0: ALK | ARAF | AURKA | AURKB | AURKC | BLK | BRAF | BTK | CAMK2A | CAMK2G | CDK10 | CDK2 | CDK3 | CDK5 | CDK6 | CHEK2 | CSF1R | CSK

Cc1ccc(Nc2cc(-c3cccc(N4C(=O)c5ccccc5C4=O)c3)ncn2)cc1NS(C)(=O)=O (10 µM)
0: ALK | ARAF | AURKA | AURKB | AURKC | BLK | BMX | BRAF | BTK | CAMK2A | CAMK2G | CDK10 | CDK2 | CDK5 | CDK6 | CHEK2 | CSF1R | CSK
1: BRAF_V600E | CDK3
